{"source": "PubChem BioAssay AID504834", "about": "(National Center for Advancing Translational Sciences (NCATS), 2011)", "note": "Screen size: about 320,000 compounds; about 22,000 (6.9%) were called active. This list was built around the results that the source calls inconclusive (neither active nor inactive); the mix of calls is not that of the screen. Calls follow the shape of the dose curve; as a rule, active = well fitted inhibition curve with a large enough effect; inconclusive = small, poorly fitted or top-dose-only effect, or another doubt; inactive = no such curve, though single readings can be large or run the other way. A potency beside an inconclusive call is a rough fit, not a confirmed value. Potency is read from the fitted curve at half-maximal effect.", "data": [{"assay": "Primary qHTS for delayed death inhibitors of the malarial parasite plastid, 96 hour incubation", "conditions": "P. falciparum luciferase reporter growth; series mostly up to 28.7 µM", "how_it_was_run": "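Two parasite generations (96 h, 37 C, 5% CO2) of compound exposure in infected erythrocytes (0.05% parasitemia, 2% hematocrit). Luciferase-reporter P. falciparum; decreased luminescence indicates inhibited growth, aimed at apicoplast-acting delayed death.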", "values": [{"smiles": "CCc1ccc(-n2c(=O)c3ccccc3n3c(=S)[nH]nc23)cc1", "Potency": "inactive"}, {"smiles": "CC1CN(C(=O)CCC(=O)N2CCOCC2)c2ccccc2O1", "note": "(stereo unspecified)", "Potency": "inconclusive: 16.5 µM [inhibitor, single point]"}, {"smiles": "CCOc1ccc(NC(=O)Cn2nnc(C(=O)NCc3cccs3)c2N)cc1", "Potency": "inconclusive: 18.5 µM [inhibitor, single point]"}, {"smiles": "NNC(=O)c1cc2ccccc2cc1NS(=O)(=O)c1ccccc1", "Potency": "inconclusive: 6.57 µM [inhibitor, partial curve, poor fit]"}, {"smiles": "CC(C)N1CCc2c(sc(NC(=O)C3CCCCC3)c2C(N)=O)C1", "Potency": "inconclusive: 9.28 µM [inhibitor, single point]"}, {"smiles": "CN(CC(=O)N1CCN(Cc2ccccc2)CC1)S(=O)(=O)c1cccc2nsnc12", "Potency": "active: 4.15 µM"}, {"smiles": "Cc1cc(C)nc(SCc2ccc(C(=O)N/N=C3\\CC(C)CC(C)(C)C3)cc2)n1", "note": "(stereo unspecified)", "Potency": "inconclusive: 8.28 µM [inhibitor, partial curve]"}, {"smiles": "O=C(Cn1ccsc1=NC(=O)C(F)(F)F)c1ccccc1", "Potency": "inactive"}, {"smiles": "CCOC(=O)C1CCCN(C(=O)CCc2nc3sc4c(c3c(=O)[nH]2)CCCC4)C1", "note": "(stereo unspecified)", "Potency": "inconclusive: 10.4 µM [inhibitor, partial curve, poor fit]"}, {"smiles": "NNC(=O)c1ccc(Oc2cc(Cl)cc(Cl)c2)o1", "Potency": "inactive"}, {"smiles": "CCC(=O)Nc1nnc(SCC(=O)N2c3ccccc3CC2C)s1", "note": "(stereo unspecified)", "Potency": "inconclusive: 18.5 µM [inhibitor, single point]"}, {"smiles": "COc1ccc(C(=O)CSc2nnc(CNC(=O)c3ccc(OC)cc3)n2C)cc1", "Potency": "inconclusive: 3.7 µM [inhibitor, partial curve]"}, {"smiles": "Cc1ccc(S(=O)(=O)N2CCC(=O)N(CCOCc3ccc(F)cc3)CC2)cc1", "Potency": "inconclusive: 18.5 µM [inhibitor, single point]"}, {"smiles": "COC(=O)c1ccccc1S(=O)(=O)Oc1ccc(-c2ccc(C(=O)O)cc2)cc1", "Potency": "inconclusive: 13.1 µM [inhibitor, single point]"}, {"smiles": "COc1ccc(-c2oc3ccc(N4CCOCC4)cc3c2/C=C/c2ccc(OC)c(OC)c2)cc1", "Potency": "active: 11.7 µM"}, {"smiles": "CCOc1ccc(N=c2scc(-c3ccc(OC)cc3)n2CCO)cc1", "Potency": "inconclusive: 18.5 µM [inhibitor, single point]"}, {"smiles": "Nc1nonc1-c1nc2ccccc2n1CC(=O)N/N=C/c1ccc(-c2cccc(C(=O)O)c2)o1", "Potency": "inactive"}, {"smiles": "CCN(CC(=O)Nc1cc(Cl)ccc1C)C(=O)CN1C(=O)NC2(CCCC2)C1=O", "Potency": "inactive"}, {"smiles": "CC(=O)Nc1c(NCC(C)C)c2ccccc2oc1=O", "Potency": "inconclusive: 6.57 µM [inhibitor, partial curve]"}, {"smiles": "O=C(CCSCc1ccccc1Cl)NC1CCCCC1", "Potency": "inactive"}, {"smiles": "O=C(Nn1c(-c2ccc(Br)cc2)nc2ccccc2c1=O)c1ccncc1", "Potency": "inactive"}, {"smiles": "Cc1ccc(C(CC(=O)O)NC(=O)c2ccc(S(=O)(=O)N3CC(C)OC(C)C3)cc2)cc1", "note": "(stereo unspecified)", "Potency": "inactive"}, {"smiles": "CC(=O)c1cccc(NC(=O)CSc2nnnn2C2CCCC2)c1", "Potency": "inactive"}, {"smiles": "C=CCOc1ccc(C(=O)Nc2ccc(OCC)cc2)cc1", "Potency": "active: 4.15 µM"}, {"smiles": "O=C(CSc1nnc(-c2ccccc2)o1)c1nnc(-c2ccccc2)o1", "Potency": "inconclusive: 14.7 µM [inhibitor, partial curve, poor fit]"}, {"smiles": "O=C1NCCCC1C(=O)N/N=C/c1cc([N+](=O)[O-])ccc1O", "note": "(stereo unspecified)", "Potency": "inconclusive: 18.5 µM [inhibitor, single point]"}, {"smiles": "CCCCn1nc(C(=O)Nc2c(C)n(C)n(-c3ccccc3)c2=O)c2ccccc2c1=O", "Potency": "active: 14.7 µM"}, {"smiles": "Cc1ccc2c(c1)C1CN(C)CCC1N2C(=O)c1cn(-c2ccccc2)nc1-c1ccccc1", "note": "(stereo unspecified)", "Potency": "inconclusive: 14.7 µM [inhibitor, partial curve, poor fit]"}, {"smiles": "Cc1cnc(C(=O)OC(C)C(=O)Nc2cccc3ccccc23)cn1", "note": "(stereo unspecified)", "Potency": "inactive"}, {"smiles": "CCN(CC(=O)Nc1cccc(OC)c1)CC(=O)Nc1cccc2ccccc12", "Potency": "inconclusive: 18.5 µM [inhibitor, single point]"}, {"smiles": "Cc1onc(-c2ccccc2)c1NC(=O)N(CCC#N)Cc1ccccc1", "Potency": "inconclusive: 18.5 µM [inhibitor, single point]"}, {"smiles": "COC(=O)c1cc(Cl)nc2ccccc12", "Potency": "inconclusive: 5.86 µM [inhibitor, partial curve, poor fit]"}, {"smiles": "O=S(=O)(c1ccccc1F)N1CCN(Cc2cc3c(cc2Br)OCCO3)CC1", "Potency": "active: 8.28 µM"}, {"smiles": "COc1ccc(NC(=S)N2CCC(Cc3ccccc3)CC2)cc1OC", "Potency": "inconclusive: 18.5 µM [inhibitor, partial curve, poor fit]"}, {"smiles": "CC(=O)N1N=C2c3ccccc3CCC2C1c1ccc(F)cc1", "note": "(stereo unspecified)", "Potency": "inconclusive: 10.4 µM [inhibitor, partial curve]"}, {"smiles": "S=c1[nH]nc2nnc3ccccc3n12", "Potency": "inactive"}, {"smiles": "COc1cc(C(=O)Nc2cc(Cl)ccc2C)c(-n2cnnn2)cc1OC", "Potency": "inactive"}, {"smiles": "CC(C)CN(C(=O)COC(=O)/C=C/c1cccs1)c1c(N)n(Cc2ccccc2)c(=O)[nH]c1=O", "Potency": "inconclusive: 20.8 µM [inhibitor, partial curve, poor fit]"}, {"smiles": "Cc1cc(NC(=O)COc2ccc(Cl)cc2Cl)n(-c2ccccc2)n1", "Potency": "inconclusive: 5.86 µM [inhibitor, partial curve, poor fit]"}, {"smiles": "CCc1ccccc1NC(=O)Cc1cn(C)c2ccccc12", "Potency": "active: 13.1 µM"}, {"smiles": "CSCC[C@H](N)C(=O)N1CCC(C(=O)N[C@@H](Cc2c[nH]c3ccccc23)C(=O)O)CC1", "Potency": "inactive"}, {"smiles": "COc1ccc(NC(=O)c2ccc3nc[nH]c3c2)cc1", "Potency": "inactive"}, {"smiles": "CCOC1=NN(c2ccc(Cl)cc2)C(=O)/C1=C\\N(C)C", "Potency": "inactive"}, {"smiles": "COc1ccc(/C(C)=N/Nc2nc3ccccc3nc2C)cc1", "Potency": "inactive"}, {"smiles": "CC(=O)Oc1ccc(C(=O)Nc2cccc(-c3nnc(-c4ccco4)o3)c2)cc1", "Potency": "inconclusive: 1.17 µM [inhibitor, full curve]"}, {"smiles": "CCc1cc(=O)oc2c(C)c(OC(C)C(=O)NCC3CCC(C(=O)O)CC3)ccc12", "note": "(stereo unspecified)", "Potency": "inconclusive: 7.38 µM [inhibitor, partial curve]"}, {"smiles": "O=C(NCCCn1ccnc1)Nc1ccc2c(c1)OCO2", "Potency": "inactive"}, {"smiles": "O=C(CSc1nnc(NC2CC2)s1)Nc1ccc(N2CCOCC2)cc1", "Potency": "inactive"}, {"smiles": "CCOc1cc(NC(=S)NCCCN2CCOCC2)c(OCC)cc1NC(=O)c1ccco1", "Potency": "inactive"}, {"smiles": "CC(=O)NC(Cc1ccccc1)C(=O)OCC(=O)c1ccc(F)cc1", "note": "(stereo unspecified)", "Potency": "inconclusive: 4.15 µM [inhibitor, full curve, poor fit]"}, {"smiles": "COc1cccc(/C=N/NC(=O)c2cc(-c3cccn3C)n[nH]2)c1", "Potency": "active: 11.7 µM"}, {"smiles": "O=C1/C(=C/c2ccccc2)SC(=S)N1CC(=O)N1CCCCC1c1cccnc1", "note": "(stereo unspecified)", "Potency": "inconclusive: 9.28 µM [inhibitor, partial curve]"}, {"smiles": "CCCc1cc(=O)[nH]c(SCC(=O)Nc2cccc3ccccc23)n1", "Potency": "inconclusive: 9.28 µM [inhibitor, single point]"}, {"smiles": "COc1cc2c(C(=O)NCCCN3CC(C)CC(C)C3)cn(CC(C)C)c(=O)c2cc1OC", "note": "(stereo unspecified)", "Potency": "inconclusive: 18.5 µM [inhibitor, single point]"}, {"smiles": "O=S(=O)(c1ccc(SCc2ccc(Br)cc2)nc1)N1CCOCC1", "Potency": "inactive"}, {"smiles": "Cc1ccc(N(CC(=O)N/N=C/c2cccnc2)S(=O)(=O)c2ccccc2)cc1", "Potency": "inconclusive: 13.1 µM [inhibitor, single point]"}, {"smiles": "CC(=O)CSc1ncnc2sc3c(c12)CCC3", "Potency": "inactive"}, {"smiles": "COC1OC(CO)C(OC2OC(C(=O)O)C(OC3OC(COS(=O)(=O)O)C(OC4OC(C(=O)O)C(OC5OC(CO)C(OC6OC(C(=O)O)C(OC7OC(COS(=O)(=O)O)C(OC8OC(C(=O)O)=C[C@H](O)C8OS(=O)(=O)O)C(O)C7NC(C)=O)[C@@H](O)C6O)C(O)C5NC(C)=O)[C@@H](O)C4O)C(O)C3NC(C)=O)[C@@H](O)C2O)C(O)C1NC(C)=O", "note": "(stereo partly specified)", "Potency": "active: 7.57 µM"}, {"smiles": "Cn1c(-c2ccccc2)c[n+]2c1CCCCC2", "Potency": "inconclusive: 3.7 µM [inhibitor, single point]"}, {"smiles": "CCOC(=O)C(C)Oc1ccc(OCc2ccccc2)cc1", "note": "(stereo unspecified)", "Potency": "inactive"}, {"smiles": "CC(C)N1CC(C(=O)Nc2ccc(C#N)cc2)CC1=O", "note": "(stereo unspecified)", "Potency": "inactive"}, {"smiles": "COc1cccc(OCc2cc(C(=O)NCCN3CCCCC3CO)no2)c1", "note": "(stereo unspecified)", "Potency": "inconclusive: 0.37 µM [inhibitor, partial curve, poor fit]"}, {"smiles": "COc1ccc(NC(=S)Nc2ccc3nc(C)c(C)nc3c2)cc1", "Potency": "inconclusive: 1.65 µM [inhibitor, partial curve, poor fit]"}, {"smiles": "CCC(C(=O)Nc1ccccc1C(=O)N1CCOCC1)N1C(=O)c2ccccc2C1=O", "note": "(stereo unspecified)", "Potency": "inconclusive: 18.5 µM [inhibitor, single point]"}, {"smiles": "O=C(Cc1c(F)cccc1Cl)Nc1cccc(S(=O)(=O)NC2=NCCCCC2)c1", "Potency": "inconclusive: 9.28 µM [inhibitor, single point]"}, {"smiles": "CC1CCCCN1CC(O)COCCC12CC3CC(CC(C3)C1)C2", "note": "(stereo unspecified)", "Potency": "active: 8.28 µM"}, {"smiles": "CC(=O)N1CCN(S(=O)(=O)c2ccc(Cl)cc2F)CC1", "Potency": "inconclusive: 0.0066 µM [inhibitor, full curve, poor fit]"}, {"smiles": "CC(=O)Nc1ccc(S(=O)(=O)N2CCC(NC(=O)c3ccccc3)CC2)cc1", "Potency": "inconclusive: 18.5 µM [inhibitor, single point]"}, {"smiles": "Cc1[nH]c2ccccc2c1C(=O)C(=O)N1CCCc2ccccc21", "Potency": "active: 10.4 µM"}, {"smiles": "Cc1sc2ncnc(Sc3nc4ccccc4s3)c2c1C", "Potency": "inconclusive: 1.17 µM [inhibitor, partial curve, poor fit]"}, {"smiles": "CCC1(C)N=C(N)Nc2nc3cc(C)c(C)cc3n21", "note": "(stereo unspecified)", "Potency": "inconclusive: 8.28 µM [inhibitor, partial curve, poor fit]"}]}]}
